According to paper PMC5908789:
These are yes or no findings as the source states them, for the method shown. In cells and extracts the contact can be indirect. Some binding calls cover weakened binding; strength is not graded here. For part of these data: Where a sequence is shown, tags or fusion partners need not be part of it. Blank lines part the entries; values can stand above or below the molecule they belong to.

By UniProt entry, the sequences of proteins in these tests, tags left out.
UniProt P37238: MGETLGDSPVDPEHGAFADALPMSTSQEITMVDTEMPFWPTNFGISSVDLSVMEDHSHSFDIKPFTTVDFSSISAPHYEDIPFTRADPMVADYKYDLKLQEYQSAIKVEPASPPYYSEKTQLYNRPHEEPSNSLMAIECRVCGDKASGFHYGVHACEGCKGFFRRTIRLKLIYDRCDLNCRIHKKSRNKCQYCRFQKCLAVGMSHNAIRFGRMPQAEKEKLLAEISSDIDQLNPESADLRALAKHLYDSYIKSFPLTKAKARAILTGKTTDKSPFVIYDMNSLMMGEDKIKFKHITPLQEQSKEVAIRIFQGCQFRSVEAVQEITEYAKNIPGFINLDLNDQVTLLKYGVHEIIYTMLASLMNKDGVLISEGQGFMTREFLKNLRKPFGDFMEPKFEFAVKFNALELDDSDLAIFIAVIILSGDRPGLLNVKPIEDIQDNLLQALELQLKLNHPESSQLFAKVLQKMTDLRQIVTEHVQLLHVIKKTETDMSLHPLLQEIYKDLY
UniProt A2A935: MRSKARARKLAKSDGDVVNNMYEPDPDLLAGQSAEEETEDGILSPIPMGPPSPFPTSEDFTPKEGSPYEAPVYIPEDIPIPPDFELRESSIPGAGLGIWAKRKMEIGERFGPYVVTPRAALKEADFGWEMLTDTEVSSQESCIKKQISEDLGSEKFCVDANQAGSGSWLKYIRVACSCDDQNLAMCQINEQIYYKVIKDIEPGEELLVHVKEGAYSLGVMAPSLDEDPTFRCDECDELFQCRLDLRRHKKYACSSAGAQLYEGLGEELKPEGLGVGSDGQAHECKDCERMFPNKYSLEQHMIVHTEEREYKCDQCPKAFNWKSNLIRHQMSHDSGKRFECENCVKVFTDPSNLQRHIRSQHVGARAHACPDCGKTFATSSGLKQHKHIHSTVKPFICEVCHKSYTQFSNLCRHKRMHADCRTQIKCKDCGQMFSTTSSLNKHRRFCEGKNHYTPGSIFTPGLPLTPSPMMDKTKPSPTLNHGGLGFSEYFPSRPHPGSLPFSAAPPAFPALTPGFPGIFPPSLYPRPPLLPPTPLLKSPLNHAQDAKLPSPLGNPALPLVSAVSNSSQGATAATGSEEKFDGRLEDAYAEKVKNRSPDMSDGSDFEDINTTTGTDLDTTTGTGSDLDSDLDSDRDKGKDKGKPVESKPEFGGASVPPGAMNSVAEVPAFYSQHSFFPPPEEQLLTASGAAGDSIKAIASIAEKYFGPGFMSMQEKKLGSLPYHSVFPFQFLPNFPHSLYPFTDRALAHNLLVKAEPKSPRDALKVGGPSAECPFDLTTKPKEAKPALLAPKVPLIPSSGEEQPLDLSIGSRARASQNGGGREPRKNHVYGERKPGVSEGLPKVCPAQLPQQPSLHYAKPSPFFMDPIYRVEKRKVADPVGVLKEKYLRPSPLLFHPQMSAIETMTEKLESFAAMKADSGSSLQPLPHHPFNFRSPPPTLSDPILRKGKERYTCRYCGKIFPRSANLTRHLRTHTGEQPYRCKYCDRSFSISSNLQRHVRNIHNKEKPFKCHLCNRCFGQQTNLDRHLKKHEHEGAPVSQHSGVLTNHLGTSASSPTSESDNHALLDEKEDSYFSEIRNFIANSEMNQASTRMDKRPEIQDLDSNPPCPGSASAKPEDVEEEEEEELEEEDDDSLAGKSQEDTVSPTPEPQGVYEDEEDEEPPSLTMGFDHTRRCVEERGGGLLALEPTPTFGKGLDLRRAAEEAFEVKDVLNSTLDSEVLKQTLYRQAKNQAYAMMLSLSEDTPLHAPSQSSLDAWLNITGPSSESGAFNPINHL

Tests used:
[1] = biological target: T1, V5-tagged S265D-hJMJD1A (phosphomimetic) (human) (UniProt Q9Y4C1); assay: co-IP; IP of V5-tagged hJMJD1A (anti-V5) from whole-cell lysates of differentiated hJMJD1A-transduced im-scWATs, lysis buffer A (50 mM HEPES-KOH pH 7.9, 150 mM NaCl, 1.5 mM MgCl2, 1% NP-40), 6 h at 4 °C; immunoblots for PRDM16, PPARγ, PGC1α; cells differentiated with or without propranolol (100 nM)
T1 sequence: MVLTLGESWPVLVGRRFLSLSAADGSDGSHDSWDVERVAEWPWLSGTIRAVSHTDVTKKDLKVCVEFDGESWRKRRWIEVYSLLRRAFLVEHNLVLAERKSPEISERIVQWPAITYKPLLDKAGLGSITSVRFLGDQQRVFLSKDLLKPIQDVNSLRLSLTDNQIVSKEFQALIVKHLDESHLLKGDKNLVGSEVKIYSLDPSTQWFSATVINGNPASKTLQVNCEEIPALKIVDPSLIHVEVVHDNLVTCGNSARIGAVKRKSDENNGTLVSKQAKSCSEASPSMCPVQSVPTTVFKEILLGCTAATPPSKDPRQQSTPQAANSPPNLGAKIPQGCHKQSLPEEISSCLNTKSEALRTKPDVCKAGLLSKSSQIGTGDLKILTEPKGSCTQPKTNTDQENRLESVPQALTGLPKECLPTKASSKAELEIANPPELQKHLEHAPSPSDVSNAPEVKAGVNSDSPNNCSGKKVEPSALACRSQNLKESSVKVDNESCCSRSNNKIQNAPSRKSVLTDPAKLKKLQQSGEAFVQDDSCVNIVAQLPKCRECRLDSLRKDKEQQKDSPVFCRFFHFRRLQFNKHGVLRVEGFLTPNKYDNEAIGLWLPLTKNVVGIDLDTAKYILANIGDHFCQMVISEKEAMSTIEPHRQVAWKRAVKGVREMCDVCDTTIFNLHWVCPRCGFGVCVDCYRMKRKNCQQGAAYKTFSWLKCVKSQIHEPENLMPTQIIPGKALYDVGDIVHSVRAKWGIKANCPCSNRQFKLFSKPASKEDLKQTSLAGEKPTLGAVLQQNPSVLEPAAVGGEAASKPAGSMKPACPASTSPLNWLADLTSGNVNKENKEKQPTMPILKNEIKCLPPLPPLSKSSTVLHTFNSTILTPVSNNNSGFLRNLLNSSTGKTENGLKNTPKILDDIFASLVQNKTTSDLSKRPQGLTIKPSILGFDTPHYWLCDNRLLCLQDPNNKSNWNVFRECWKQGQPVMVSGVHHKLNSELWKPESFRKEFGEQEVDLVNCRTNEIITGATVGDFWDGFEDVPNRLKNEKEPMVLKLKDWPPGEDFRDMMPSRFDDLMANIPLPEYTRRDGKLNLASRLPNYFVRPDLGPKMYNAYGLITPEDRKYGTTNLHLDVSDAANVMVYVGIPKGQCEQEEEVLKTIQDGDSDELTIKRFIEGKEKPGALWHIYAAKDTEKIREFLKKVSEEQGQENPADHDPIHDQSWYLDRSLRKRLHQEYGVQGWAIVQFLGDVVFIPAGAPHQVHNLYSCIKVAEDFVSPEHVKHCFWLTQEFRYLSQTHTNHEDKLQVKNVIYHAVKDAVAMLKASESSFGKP

[2] = biological target: T2, endogenous mouse JMJD1A phosphorylated at S265 (pS265-JMJD1A) in primary adipocytes (mouse (endogenous in primary scWAT adipocytes)) (UniProt Q6PCM1); assay: co-IP; primary adipocytes differentiated from SVF of WT and S265A KI/KI scWATs; the antibody used for IP was not shown (Supplementary Fig. 4e)
T2 sequence (chain, phosphoserine at 265): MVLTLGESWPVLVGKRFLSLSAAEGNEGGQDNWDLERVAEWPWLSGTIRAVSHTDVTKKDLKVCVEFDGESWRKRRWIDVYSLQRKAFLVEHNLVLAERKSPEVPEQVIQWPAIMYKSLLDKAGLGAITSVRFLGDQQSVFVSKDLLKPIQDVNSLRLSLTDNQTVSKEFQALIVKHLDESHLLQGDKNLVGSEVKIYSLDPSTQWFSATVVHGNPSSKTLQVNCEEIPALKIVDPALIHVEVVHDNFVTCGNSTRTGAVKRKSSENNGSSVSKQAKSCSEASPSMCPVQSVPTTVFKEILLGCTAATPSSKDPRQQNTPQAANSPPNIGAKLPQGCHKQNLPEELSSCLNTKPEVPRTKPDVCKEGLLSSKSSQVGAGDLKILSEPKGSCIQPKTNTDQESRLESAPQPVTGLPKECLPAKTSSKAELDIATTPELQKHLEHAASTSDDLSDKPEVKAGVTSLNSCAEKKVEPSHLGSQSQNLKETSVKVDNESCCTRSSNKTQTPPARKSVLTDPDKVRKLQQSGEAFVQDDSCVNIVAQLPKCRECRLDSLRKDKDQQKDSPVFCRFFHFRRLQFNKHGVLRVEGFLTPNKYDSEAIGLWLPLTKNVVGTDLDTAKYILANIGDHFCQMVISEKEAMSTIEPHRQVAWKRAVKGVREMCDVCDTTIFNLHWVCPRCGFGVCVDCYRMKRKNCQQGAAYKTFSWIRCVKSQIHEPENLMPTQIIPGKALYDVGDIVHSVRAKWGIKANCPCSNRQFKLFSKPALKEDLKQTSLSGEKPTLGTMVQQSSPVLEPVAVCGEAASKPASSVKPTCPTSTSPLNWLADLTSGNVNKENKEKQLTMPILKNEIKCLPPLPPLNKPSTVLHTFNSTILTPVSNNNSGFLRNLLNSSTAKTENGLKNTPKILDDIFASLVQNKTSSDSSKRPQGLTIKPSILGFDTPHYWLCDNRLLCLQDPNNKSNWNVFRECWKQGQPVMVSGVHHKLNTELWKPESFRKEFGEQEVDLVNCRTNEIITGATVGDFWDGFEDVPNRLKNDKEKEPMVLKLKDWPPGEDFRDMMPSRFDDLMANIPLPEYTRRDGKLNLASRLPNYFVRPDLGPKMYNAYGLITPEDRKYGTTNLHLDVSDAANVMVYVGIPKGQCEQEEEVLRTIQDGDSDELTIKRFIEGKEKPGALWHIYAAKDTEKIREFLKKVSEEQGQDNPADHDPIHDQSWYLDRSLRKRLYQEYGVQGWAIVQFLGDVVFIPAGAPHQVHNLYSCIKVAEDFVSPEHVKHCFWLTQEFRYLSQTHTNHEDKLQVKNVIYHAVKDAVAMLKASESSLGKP

binding [1]: binds | binding [2]: binds
Molecule: peroxisome proliferator-activated receptor-γ (PPARγ) (from UniProt P37238 1-505)

binding [1]: binds | binding [2]: binds
Molecule: PRDM16 (native) (from UniProt A2A935 1-1275)

binding [1]: binds | binding [2]: binds
B1: PGC1α (protein, UniProt O70343 1-797)
chain: MAWDMCSQDSVWSDIECAALVGEDQPLCPDLPELDLSELDVNDLDTDSFLGGLKWCSDQSEIISNQYNNEPANIFEKIDEENEANLLAVLTETLDSLPVDEDGLPSFDALTDGAVTTDNEASPSSMPDGTPPPQEAEEPSLLKKLLLAPANTQLSYNECSGLSTQNHAANHTHRIRTNPAIVKTENSWSNKAKSICQQQKPQRRPCSELLKYLTTNDDPPHTKPTENRNSSRDKCASKKKSHTQPQSQHAQAKPTTLSLPLTPESPNDPKGSPFENKTIERTLSVELSGTAGLTPPTTPPHKANQDNPFKASPKLKPSCKTVVPPPTKRARYSECSGTQGSHSTKKGPEQSELYAQLSKSSGLSRGHEERKTKRPSLRLFGDHDYCQSLNSKTDILINISQELQDSRQLDFKDASCDWQGHICSSTDSGQCYLRETLEASKQVSPCSTRKQLQDQEIRAELNKHFGHPCQAVFDDKSDKTSELRDGDFSNEQFSKLPVFINSGLAMDGLFDDSEDESDKLSYPWDGTQPYSLFDVSPSCSSFNSPCRDSVSPPKSLFSQRPQRMRSRSRSFSRHRSCSRSPYSRSRSRSPGSRSSSRSCYYYESSHYRHRTHRNSPLYVRSRSRSPYSRRPRYDSYEAYEHERLKRDEYRKEHEKRESERAKQRERQKQKAIEERRVIYVGKIRPDTTRTELRDRFEVFGEIEECTVNLRDDGDSYGFITYRYTCDAFAALENGYTLRRSNETDFELYFCGRKQFFKSNYADLDTNSDDFDPASTKSKYDSLDFDSLLKEAQRSLRR
